Measured values taken from PMC12602706.
Results are given in words; binding and its absence hold for the method and conditions named. Binding seen in cells or lysates may run through a third protein. Some results given as binding are weak or reduced against the parent protein; the word gives no strength. Where a sequence is shown, tags or fusion partners need not be part of it.

Target: T1, FLAG-tagged LMO4 (LIM domain only protein 4) (human) (UniProt P61968)
T1 sequence: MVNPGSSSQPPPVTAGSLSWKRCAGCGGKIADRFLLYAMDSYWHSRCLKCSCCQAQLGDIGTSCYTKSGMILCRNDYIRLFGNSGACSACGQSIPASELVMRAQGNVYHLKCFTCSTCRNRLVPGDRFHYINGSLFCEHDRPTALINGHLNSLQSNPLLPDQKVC
Experiment: co-IP; Flag-tagged LMO4 pulled down from Cal27 cells, in the presence or absence of MG132; blotted for RAB17 and ubiquitin

B1: RAB17 (Ras-related protein Rab-17) (protein, UniProt Q9H0T7 1-212)
chain: MAQAHRTPQPRAAPSQPRVFKLVLLGSGSVGKSSLALRYVKNDFKSILPTVGCAFFTKVVDVGATSLKLEIWDTAGQEKYHSVCHLYFRGANAALLVYDITRKDSFLKAQQWLKDLEEELHPGEVLVMLVGNKTDLSQEREVTFQEGKEFADSQKLLFMETSAKLNHQVSEVFNTVAQELLQRSDEEGQALRGDAAVALNKGPARQAKCCAH
- binding: binds
